One assay concerns the target T1, periostin-Myc (UniProt Q62009).
T1 sequence: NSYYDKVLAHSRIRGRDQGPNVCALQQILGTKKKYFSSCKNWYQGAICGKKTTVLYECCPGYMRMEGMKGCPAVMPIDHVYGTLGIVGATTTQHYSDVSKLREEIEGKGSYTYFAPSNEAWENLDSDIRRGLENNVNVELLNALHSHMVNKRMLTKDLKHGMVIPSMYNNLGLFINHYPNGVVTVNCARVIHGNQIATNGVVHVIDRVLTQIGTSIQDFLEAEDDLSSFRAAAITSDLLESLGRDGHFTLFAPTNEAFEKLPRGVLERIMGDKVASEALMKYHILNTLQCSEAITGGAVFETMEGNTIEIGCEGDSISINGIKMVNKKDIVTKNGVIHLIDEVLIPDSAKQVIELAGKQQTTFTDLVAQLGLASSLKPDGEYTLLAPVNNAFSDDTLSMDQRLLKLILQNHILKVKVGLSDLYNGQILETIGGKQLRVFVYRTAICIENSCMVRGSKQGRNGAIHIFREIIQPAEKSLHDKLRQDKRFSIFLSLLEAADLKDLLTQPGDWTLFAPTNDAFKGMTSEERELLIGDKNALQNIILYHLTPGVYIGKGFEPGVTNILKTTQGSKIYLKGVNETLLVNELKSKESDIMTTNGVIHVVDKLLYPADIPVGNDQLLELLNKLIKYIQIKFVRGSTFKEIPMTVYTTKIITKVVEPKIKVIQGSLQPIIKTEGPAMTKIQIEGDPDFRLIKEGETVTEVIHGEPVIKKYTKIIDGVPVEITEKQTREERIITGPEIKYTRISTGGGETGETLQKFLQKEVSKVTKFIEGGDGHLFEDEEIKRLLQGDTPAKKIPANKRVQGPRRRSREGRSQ
The experiment in a line: co-IP; whole-cell lysates of HEK293T cells co-expressing Notch1-FLAG and periostin-Myc; precipitated with anti-Myc antibody, blotted with anti-Notch1 (extracellular region) antibody; lysis buffer 150 mM NaCl, 100 mM Tris-Cl pH 7.4, 1% Triton X-100, 0.5% NP-40.

The next assay concerns the target EGF8-32-Myc. The experiment in a line: co-IP; whole-cell lysates of HEK293T cells co-expressing NdEGF-Myc or EGF8-32-Myc and periostin-HA; precipitated with anti-Myc antibody, blotted with anti-HA antibody; lysis buffer 150 mM NaCl, 100 mM Tris-Cl pH 7.4, 1% Triton X-100, 0.5% NP-40.

This note sets out measurements from article PMC2923609.

Results are given in words; binding and its absence hold for the method and conditions named. Binding seen in cells or lysates may run through a third protein. For some assays here: Binding can be weak; no strength is given. Where a sequence is shown, tags or fusion partners need not be part of it.

Consider “S1-cleaved heterodimeric Notch1 (N1^EC with N1TM-FLAG) (complex)”, for which the binding result with periostin-Myc is given as “no binding”.

B1: periostin-HA (protein, UniProt Q62009 24-838)
chain: NSYYDKVLAHSRIRGRDQGPNVCALQQILGTKKKYFSSCKNWYQGAICGKKTTVLYECCPGYMRMEGMKGCPAVMPIDHVYGTLGIVGATTTQHYSDVSKLREEIEGKGSYTYFAPSNEAWENLDSDIRRGLENNVNVELLNALHSHMVNKRMLTKDLKHGMVIPSMYNNLGLFINHYPNGVVTVNCARVIHGNQIATNGVVHVIDRVLTQIGTSIQDFLEAEDDLSSFRAAAITSDLLESLGRDGHFTLFAPTNEAFEKLPRGVLERIMGDKVASEALMKYHILNTLQCSEAITGGAVFETMEGNTIEIGCEGDSISINGIKMVNKKDIVTKNGVIHLIDEVLIPDSAKQVIELAGKQQTTFTDLVAQLGLASSLKPDGEYTLLAPVNNAFSDDTLSMDQRLLKLILQNHILKVKVGLSDLYNGQILETIGGKQLRVFVYRTAICIENSCMVRGSKQGRNGAIHIFREIIQPAEKSLHDKLRQDKRFSIFLSLLEAADLKDLLTQPGDWTLFAPTNDAFKGMTSEERELLIGDKNALQNIILYHLTPGVYIGKGFEPGVTNILKTTQGSKIYLKGVNETLLVNELKSKESDIMTTNGVIHVVDKLLYPADIPVGNDQLLELLNKLIKYIQIKFVRGSTFKEIPMTVYTTKIITKVVEPKIKVIQGSLQPIIKTEGPAMTKIQIEGDPDFRLIKEGETVTEVIHGEPVIKKYTKIIDGVPVEITEKQTREERIITGPEIKYTRISTGGGETGETLQKFLQKEVSKVTKFIEGGDGHLFEDEEIKRLLQGDTPAKKIPANKRVQGPRRRSREGRSQ
On to B1, for which the binding result with EGF8-32-Myc is “binds”.
